Test results reported in the supplement of paper PMC10735217.
Where a name gives a salt, the structure may show the parent alone. The list shows a part of the results. This data set is noisy: repeats of one test often differ as much as different tests do.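 The human kidney-derived cells carry a stably integrated construct of eight TEAD-binding elements driving luciferase, read by luminescence in a drug-repurposing library screen. A compound counts as a hit when its signal is more than five robust Z scores above the plate mean.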

System: HEK293A TEAD-LUC reporter
Assay: TEAD-luciferase reporter activity (YAP activation), robust Z score vs plate; higher = stronger YAP/TEAD activation
Details: 24 h

Structure (SMILES) | TEAD-luciferase reporter activity (compound concentration: 200 nM) | TEAD-luciferase reporter activity (compound concentration: 2 uM) | TEAD-luciferase reporter activity (compound concentration: 10 uM)
CCCC[C@@H](NC(=O)[C@@H](Cc1cn(C(=O)OC)c2ccccc12)NC(=O)[C@H](CC(C)(C)C)NC(=O)N1[C@H](C)CCC[C@@H]1C)C(=O)[O-] | inactive: -0.193 | inactive: 1.14 | inactive: 0.268
CC(C)(C)NCC(O)COc1cccc2c1SCCC2 (configuration not stated) [Tertatolol hydrochloride] | inactive: 2.38 | inactive: -1.08 | inactive: 1.7
CCCCCCN1CCCC12Cc1ccccc1CNC2=O (configuration not stated) | inactive: 2.9 |  | inactive: -0.0843
C[C@@H](O)[C@H]1C(=O)N2C(C(=O)O)=C(S[C@@H]3CN[C@H](C(=O)N(C)C)C3)[C@H](C)[C@H]12 | inactive: -0.00218 | inactive: -1.33 | inactive: -0.533
C[C@]12CCC(=O)C=C1CC[C@@H]1[C@@H]2[C@@H](O)C[C@@]2(C)[C@H]1CC[C@]2(O)C(=O)COP(=O)([O-])[O-] | inactive: -1.2 | inactive: -0.567 | inactive: 0.835
O=C(Nc1cc(-c2ccncc2)nn1-c1ccccc1)c1ccccc1 | inactive: -2.34 |  | inactive: -0.462
CNC(=O)c1ccc2cc([C@@]3(O)CCn4cncc43)ccc2c1 [orteronel] | inactive: -0.567 | inactive: -1.79 | inactive: -2.29
CC(C)(N)C(=O)N[C@H](COCc1ccccc1)c1nnnn1CCOC(=O)NCCCCO | inactive: 0.0779 | inactive: 0.528 | inactive: 1.29
c1ccc(-c2nc(N3CCNCC3)cc3ccccc23)cc1 [perafensine] | inactive: 0.505 | inactive: -0.213 | inactive: -0.537
COc1c(N2CCC(=NO)CC2)c(F)cc2c(=O)c(C(=O)O)cn(C3CC3)c12 | inactive: 0.142 | inactive: -0.941 | inactive: 1.29
Cc1cccc(C(=O)N2CCCC2C(C)(C)O)c1F (configuration not stated) | inactive: -1.11 | inactive: 2.15 | inactive: 0.335
Cc1cc(NCCN2CCN(C(c3ccccc3)c3ccccc3)CC2)c([N+](=O)[O-])c(C)n1 [Elbanizine] | inactive: 3.92 | inactive: 0.861 | inactive: 1.27
CO[C@H]1C(n2cnc3c(=O)[nH]c(N)nc32)C[C@@H]1CO (some centres not stated) | inactive: 0.73 | inactive: 0.00693 | inactive: 3.96
COC(=O)c1ccc(C(C(C)=O)C(C)=O)cc1C(=O)OC [Pharmaprojects No. 1912] | inactive: -0.538 | inactive: -1.75 | inactive: 1.72
O=[N+]([O-])c1cn2c(n1)OC[C@@H](OCc1ccc(OC(F)(F)F)cc1)C2 [Pretomanid] | inactive: 0.247 | inactive: -0.912 | inactive: -2.13
CC1(C)CC(NC(=O)CCN2C(=O)c3ccccc3S2(=O)=O)c2ccccc2O1 (configuration not stated) | inactive: -0.64 | inactive: 1.36 | inactive: -0.573
O=c1[nH]c(=O)n([C@H]2C[C@H](O)[C@@H](CO)O2)cc1/C=C/Br [brivudine eyedrop] |  | inactive: -1.74 | 
O=c1[nH]c(=O)n([C@H]2C[C@H](O)[C@@H](CO)O2)cc1/C=C/Br [brivudine eyedrop, Menarini] | inactive: -0.789 |  | inactive: -2.09
CC(C)CC(CN[C@@H](CC(C)C)C(N)=O)NC(=O)[C@H](Cc1cnc[nH]1)NC(=O)CNC(=O)[C@@H](NC(=O)C(C)NC(=O)[C@H](Cc1c[nH]c2ccccc12)NC(=O)[C@H](CCC(N)=O)NC(=O)[C@H]1Cc2c([nH]c3ccccc23)CN1)C(C)C (some centres not stated) | inactive: 0.835 | inactive: -0.348 | inactive: 1.75
NCc1ccc(S(=O)(=O)c2ccc(N)cc2)cc1 | inactive: -0.612 | inactive: 3.43 | inactive: 1.99
CNC(=O)CN1CCC(Oc2cc3c(Nc4cccc(Cl)c4F)ncnc3cc2OC)CC1 [Sapitinib] | inactive: -1.06 | inactive: 1.44 | inactive: -2.82
CC(=O)NC[C@H]1CN(c2ccc(C3=NOC(C#N)C3)c(F)c2)C(=O)O1 (some centres not stated) | active: 8.55 | inactive: 0.0985 | inactive: 1.16
O=C(O)CCN1CCC(=C2c3ccc(F)cc3OCc3cccnc32)CC1 | inactive: 0.641 | inactive: -0.71 | inactive: 1.18
Cc1c(C)c2c(c(C)c1O)CC[C@@](C)(CCC[C@H](C)CCC[C@H](C)CCCC(C)C)O2 [Vitamin E] | inactive: -1.23 | inactive: 0.417 | inactive: 3.45
CC(CC1CCCCC1)NCCC(c1ccccc1)c1ccccc1 (configuration not stated) [Droprenilamine] | inactive: -1.66 | inactive: 0.348 | inactive: -0.887
CCOCc1cc(OC)c(-c2ccc(C[C@H](NC(=O)c3c(F)cccc3F)C(=O)O)cc2)c(OC)c1 [Firategrast] | inactive: 0.0917 | inactive: -0.133 | inactive: -0.125
O=c1[nH]ncc(NCC(O)COc2cccc3ccccc23)c1Cl (configuration not stated) | inactive: -0.474 | inactive: 0.629 | inactive: -0.342

At a glance, some entries already given.
Structure (SMILES) | TEAD-luciferase reporter activity (compound concentration: 200 nM) | TEAD-luciferase reporter activity (compound concentration: 2 uM) | TEAD-luciferase reporter activity (compound concentration: 10 uM)
O=c1[nH]c(=O)n([C@H]2C[C@H](O)[C@@H](CO)O2)cc1/C=C/Br [brivudine eyedrop, Menarini] | inactive: -0.789 |  | inactive: -2.09
CC(C)CC(CN[C@@H](CC(C)C)C(N)=O)NC(=O)[C@H](Cc1cnc[nH]1)NC(=O)CNC(=O)[C@@H](NC(=O)C(C)NC(=O)[C@H](Cc1c[nH]c2ccccc12)NC(=O)[C@H](CCC(N)=O)NC(=O)[C@H]1Cc2c([nH]c3ccccc23)CN1)C(C)C (some centres not stated) | inactive: 0.835 | inactive: -0.348 | inactive: 1.75
NCc1ccc(S(=O)(=O)c2ccc(N)cc2)cc1 | inactive: -0.612 | inactive: 3.43 | inactive: 1.99

Remaining list, next part.

Structure (SMILES) | TEAD-luciferase reporter activity (compound concentration: 200 nM) | TEAD-luciferase reporter activity (compound concentration: 2 uM) | TEAD-luciferase reporter activity (compound concentration: 10 uM)
CCCN1CCCC12Cc1ccccc1CN(C(=O)CCNC(C)=O)C2 (configuration not stated) | inactive: 0.797 |  | inactive: 1.62
CSc1nc(C)c(Cc2ccccc2)c(=O)[nH]1 | inactive: -0.139 | inactive: -0.738 | inactive: 0.859
CN1CCC2(O)Oc3c(ccc4ccccc34)CC2C1 (configuration not stated) | inactive: -1.97 | inactive: 0.675 | inactive: 0.359
CN1CCC(=C2c3ccccc3CCc3cccnc32)CC1 [Azatadine maleate] | inactive: 0.368 | inactive: 0.608 | inactive: 4.63
CCCCCCCOC(=O)Cc1c(C)n(C(=O)c2ccc(Cl)cc2)c2ccc(OC)cc12 [Indomethacin heptyl ester] | inactive: -0.109 | inactive: 0.312 | inactive: 1.49
CCCc1c(OCCCOc2ccc(C(=O)NC)c(OC)c2CC2CC2)ccc2c1OC(CCC(=O)O)CC2 (configuration not stated) | inactive: 1.06 | inactive: -1.55 | inactive: 0.113
CCCC(=O)N1CCCN(c2nc(N)c3cc(OC)c(OC)cc3n2)CC1 [bunazosin ER] | inactive: 1.23 | inactive: -2.15 | inactive: 0.494
C#CCN(C)Cc1ccccc1 [Pargyline hydrochloride] | inactive: -0.272 | inactive: 3.31 | inactive: 0.733
CCCC(CCC)C(=O)NCC(=O)NCCCCCCNC(=O)n1cc(F)c(=O)[nH]c1=O | inactive: 0.0794 | inactive: -0.0633 | inactive: 0.806
Cc1cc(F)c(C(=O)Nc2cccc(-c3nncn3C(C)C)n2)cc1-n1cnc(C2CC2)c1 | inactive: -0.118 | inactive: -0.917 | inactive: 1.83
COc1ccc(C(=O)N2CCOc3ccccc32)cc1Cl | inactive: 0.854 | inactive: -0.544 | inactive: -1.23
CC(C)CNC(=N)Nc1cccc(NC(=O)Nc2ccc(Cl)cc2)c1 | inactive: -0.797 | inactive: -0.0306 | inactive: 0.602
COCCN(C)Cc1ccc2nc3sc(C(=O)N(C)C4CCCCC4)cn3c2c1 | inactive: 0.108 | inactive: 1.58 | inactive: 1.81
CC(C)N(CCC(c1ccccc1)c1ccccc1)C(C)C | inactive: -0.514 | inactive: 2.27 | inactive: 0.752
CC(C)(C)[C@H](NC(=O)[C@H](CC1CCCC1)CN(O)C=O)C(=O)N1CCN(Cc2ccc3c(c2)OCO3)CC1 | inactive: 1.62 | inactive: -0.32 | inactive: -0.245
CCOC(=O)OC(C)OC1=C(C(=O)Nc2ccccn2)N(C)S(=O)(=O)c2ccccc21 (configuration not stated) [ampiroxicam] |  | inactive: 0.524 | 
CCOC(=O)OC(C)OC1=C(C(=O)Nc2ccccn2)N(C)S(=O)(=O)c2ccccc21 (configuration not stated) | inactive: -0.0627 |  | inactive: 0.701
CCCCCCCCCCCCCCCCOCCCOP(=O)(O)CO[C@H](C)Cn1cnc2c(N)ncnc21 | inactive: -0.79 | inactive: -0.644 | inactive: -0.451
CS(=O)(=O)c1ccc(C(CC2CCCC2)C(=O)Nc2nccs2)cc1 (configuration not stated) | inactive: 0.106 | inactive: -0.644 | inactive: -0.521
Cc1cc(Nc2nc(N[C@@H](C)c3ncc(F)cn3)ncc2Cl)n[nH]1 | inactive: -0.981 | inactive: -0.642 | inactive: 1.53
O=C(Nc1ccc2cn[nH]c2c1)c1cc2[nH]c(Nc3ccccc3C(F)(F)F)nc2cc1N1CCNCC1 | inactive: 0.187 | inactive: -1.48 | inactive: -1.31
COc1ccccc1C(=O)N1C2CCCC1CC(=O)C2 | inactive: -1.31 |  | inactive: -0.423
C[C@H](NP(=O)(OC[C@H]1O[C@@H](n2ccc(N)nc2=O)C(F)(F)[C@@H]1O)Oc1ccccc1)C(=O)OCc1ccccc1 (some centres not stated) | inactive: -1.43 | inactive: -1.35 | inactive: -1.4
COc1cc2nc(N3CCCN(C(=O)N4CCOCC4)CC3)cc(N)c2c(-c2ccc(F)cc2)c1OC | inactive: 0.317 | inactive: -1.57 | inactive: 1.07
O=c1c2ccccc2ncn1-c1nnn[nH]1 | inactive: 0.206 | inactive: -1.68 | inactive: 1.24
CC1CCC(CN)(CN)CC1 | inactive: -0.0838 | inactive: 1.21 | inactive: -1.15
Cn1c(-c2ccccc2C(F)(F)F)nnc1C12CCC(c3nc(-c4ccc(F)cc4)no3)(CC1)CC2 | inactive: -0.558 | inactive: -1.4 | inactive: 0.598
